Assay results published in US10563263B2, “Genetic polymorphisms associated with statin response and cardiovascular diseases, methods of detection and uses thereof” (CELERA CORPORATION, priority 2010, dated 2020).
Further values from the same series stand in other lists.

Tested on: CVD (CHD or stroke)
Experiment: Meta-analysis of CARE and WOSCOPS combined, synergy index, CVD endpoint
Type: in vivo, human
From the text: Tables 4-5 provide meta-analyses of CARE and WOSCOPS combined (2nd section of each table) for two endpoints (CHD and CVD) and three genetic models (dominant, recessive, and additive), as well as logistic regression analyses of CARE (3rd section of each table) and WOSCOPS (4th section of each table) individually.
Tables 12 and 17 provide results of meta-analysis of the CARE and WOSCOPS sample sets combined by direct genotyping and by imputing genotypes.
“P” indicates the p-value, and “P(R)” (or “P.R.”) indicates the p-value random effect. Both of these are p-values corresponding to a statistical test of whether the combined synergy index is equal to one but use different assumptions to derive the p-value. “P” is calculated using a fixed effects model, and “P(R)” is calculated using a random effects model.
“OR” indicates the odds ratio (synergy index) calculated from a fixed effects model, and “OR(R)” (or “OR.R.”) indicates the odds ratio (synergy index) calculated from a random effects model.

[1] = rs7283476 allele T ADDITIVE Imputed
[2] = rs7283476 allele T DOMINANT Imputed
[3] = rs7295817 allele C GENOTYPIC Imputed
[4] = rs7298255 allele A ADDITIVE Imputed
[5] = rs7298255 allele A DOMINANT Imputed
[6] = rs7305832 allele C GENOTYPIC Imputed
[7] = rs7305832 allele C RECESSIVE Imputed
[8] = rs7331467 allele A GENOTYPIC Imputed
[9] = rs7392620 allele C ADDITIVE Imputed
[10] = rs7446891 allele G DOMINANT Imputed
[11] = rs7448641 allele C ADDITIVE Imputed
[12] = rs7448641 allele C DOMINANT Imputed
[13] = rs7484728 allele T GENOTYPIC Imputed
[14] = rs7499402 allele A ADDITIVE Genotyped
[15] = rs7529851 allele A ADDITIVE Imputed
[16] = rs7529851 allele A GENOTYPIC Imputed
[17] = rs7573951 allele G ADDITIVE Imputed
[18] = rs7599198 allele T DOMINANT Imputed
[19] = rs7600050 allele C ADDITIVE Imputed
[20] = rs7607712 allele T ADDITIVE Imputed

Compound: CC[C@H](C)C(=O)O[C@H]1C[C@H](O)C=C2C=C[C@H](C)[C@H](CC[C@@H](O)C[C@@H](O)CC(=O)O)[C@H]21 [Pravastatin, pravastatin]
- OR(R) (rs7282518 allele T ADDITIVE Imputed): 1.6157
- OR [1]: 0.4528
- OR(R) [1]: 0.4555
- OR [2]: 0.4307
- OR(R) [2]: 0.4432
- OR [3]: 0.5763
- OR(R) [3]: 0.5838
- OR [4]: 0.7441
- OR(R) [4]: 0.7441
- OR [5]: 0.6197
- OR(R) [5]: 0.6197
- OR [6]: 1.9292
- OR(R) [6]: 1.9292
- OR [7]: 2.1109
- OR(R) [7]: 2.0804
- OR [8]: 2.0747
- OR(R) [8]: 2.0747
- OR [9]: 0.7677
- OR(R) [9]: 0.7677
- OR [10]: 0.6712
- OR(R) [10]: 0.6712
- OR [11]: 0.2451
- OR(R) [11]: 0.2451
- OR [12]: 0.2509
- OR(R) [12]: 0.2509
- OR [13]: 2.0019
- OR(R) [13]: 2.0019
- OR [14]: 1.6071
- OR(R) [14]: 1.6071
- OR [15]: 0.7475
- OR(R) [15]: 0.7475
- OR [16]: 0.5463
- OR(R) [16]: 0.5463
- OR [17]: 0.7086
- OR(R) [17]: 0.7086
- OR [18]: 0.5939
- OR(R) [18]: 0.5939
- OR [19]: 1.3671
- OR(R) [19]: 1.3671
- OR [20]: 1.452
- OR(R) [20]: 1.452
- OR (rs9309988 allele G (A1), DOMINANT, Imputed): 1.9326
- OR (rs9309989 allele C (A1), DOMINANT, Genotyped): 1.9491
- OR (rs9310221 allele A (A1), DOMINANT, Imputed): 1.86
- OR (rs9327555 allele T (A1), DOMINANT, Imputed): 0.5753
- OR (rs9454967 allele G (A1), ADDITIVE, Imputed): 2.1926
- OR (rs9454967 allele G (A1), DOMINANT, Imputed): 2.4795
- OR (rs9471295 allele T (A1), DOMINANT, Imputed): 1.5391
- OR (rs9477007 allele A (A1), ADDITIVE, Imputed): 1.429
- OR (rs9477007 allele A (A1), GENOTYPIC, Imputed): 2.0759
- OR (rs9487279 allele T (A1), DOMINANT, Imputed): 0.5948
- OR (rs9555973 allele G (A1), ADDITIVE, Imputed): 0.5479
- OR (rs9555973 allele G (A1), DOMINANT, Imputed): 0.5157
- OR (rs9557510 allele G (A1), ADDITIVE, Imputed): 1.6102
- OR (rs9557510 allele G (A1), DOMINANT, Imputed): 1.7706
- OR (rs9560584 allele T (A1), DOMINANT, Imputed): 0.512
- OR (rs9588770 allele T (A1), DOMINANT, Imputed): 0.5187
- OR (rs9588848 allele C (A1), ADDITIVE, Imputed): 0.5369
- OR (rs9588848 allele C (A1), DOMINANT, Imputed): 0.5009
- OR (rs9812206 allele G (A1), ADDITIVE, Imputed): 0.4469
- OR (rs9812206 allele G (A1), DOMINANT, Imputed): 0.4369
- OR (rs9813552 allele G (A1), ADDITIVE, Imputed): 0.4493
- OR (rs9813552 allele G (A1), DOMINANT, Imputed): 0.4387
- OR (rs9815037 allele T (A1), ADDITIVE, Imputed): 0.4461
- OR (rs9815037 allele T (A1), DOMINANT, Imputed): 0.4354
- OR (rs9825349 allele A (A1), ADDITIVE, Imputed): 0.4461
- OR (rs9825349 allele A (A1), DOMINANT, Imputed): 0.4354
- OR (rs9834217 allele T (A1), ADDITIVE, Imputed): 0.4466
- OR (rs9834217 allele T (A1), DOMINANT, Imputed): 0.4359
- OR (rs9840460 allele T (A1), ADDITIVE, Imputed): 0.4461
- OR (rs9840460 allele T (A1), DOMINANT, Imputed): 0.4354
- OR (rs9840756 allele A (A1), ADDITIVE, Imputed): 0.4458
- OR (rs9840756 allele A (A1), DOMINANT, Imputed): 0.435
- OR (rs9844801 allele C (A1), DOMINANT, Imputed): 1.9326
- OR (rs9869187 allele C (A1), ADDITIVE, Imputed): 0.4651
- OR (rs9869187 allele C (A1), DOMINANT, Imputed): 0.4704
- OR (rs9872327 allele T (A1), DOMINANT, Imputed): 1.9326
- OR (rs9881685 allele A (A1), ADDITIVE, Imputed): 0.4438
- OR (rs9881685 allele A (A1), DOMINANT, Imputed): 0.4332
- OR (rs9909499 allele C (A1), DOMINANT, Imputed): 1.4669
- OR (rs9911847 allele G (A1), DOMINANT, Imputed): 0.6755
- OR (rs9946886 allele G (A1), RECESSIVE, Imputed): 0.3084
- OR (rs9958823 allele A (A1), ADDITIVE, Imputed): 1.5292
- OR (rs9965248 allele T (A1), ADDITIVE, Imputed): 1.4965
